According to PMC10940595:
Results are given in words; binding and its absence hold for the method and conditions named. Binding seen in cells or lysates may run through a third protein. Here binding means that the protein was enriched with, or labelled near, the bait; the list need not be complete. Sequences can lack the tags named with a protein.

By UniProt entry, the sequences of proteins in these tests, tags left out.
UniProt O17695: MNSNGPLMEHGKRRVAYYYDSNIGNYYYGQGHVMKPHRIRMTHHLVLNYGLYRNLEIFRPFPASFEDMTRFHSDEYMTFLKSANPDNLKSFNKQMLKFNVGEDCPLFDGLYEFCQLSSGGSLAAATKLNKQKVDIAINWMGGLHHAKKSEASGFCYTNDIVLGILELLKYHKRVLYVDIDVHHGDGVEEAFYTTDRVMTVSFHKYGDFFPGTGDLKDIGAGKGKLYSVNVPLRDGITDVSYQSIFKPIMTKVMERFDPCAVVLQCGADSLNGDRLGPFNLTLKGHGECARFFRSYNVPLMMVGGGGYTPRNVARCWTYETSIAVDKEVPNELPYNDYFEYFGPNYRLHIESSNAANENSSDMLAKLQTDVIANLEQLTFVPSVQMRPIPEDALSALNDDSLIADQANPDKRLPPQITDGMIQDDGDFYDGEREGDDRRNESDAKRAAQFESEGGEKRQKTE
UniProt Q9U263: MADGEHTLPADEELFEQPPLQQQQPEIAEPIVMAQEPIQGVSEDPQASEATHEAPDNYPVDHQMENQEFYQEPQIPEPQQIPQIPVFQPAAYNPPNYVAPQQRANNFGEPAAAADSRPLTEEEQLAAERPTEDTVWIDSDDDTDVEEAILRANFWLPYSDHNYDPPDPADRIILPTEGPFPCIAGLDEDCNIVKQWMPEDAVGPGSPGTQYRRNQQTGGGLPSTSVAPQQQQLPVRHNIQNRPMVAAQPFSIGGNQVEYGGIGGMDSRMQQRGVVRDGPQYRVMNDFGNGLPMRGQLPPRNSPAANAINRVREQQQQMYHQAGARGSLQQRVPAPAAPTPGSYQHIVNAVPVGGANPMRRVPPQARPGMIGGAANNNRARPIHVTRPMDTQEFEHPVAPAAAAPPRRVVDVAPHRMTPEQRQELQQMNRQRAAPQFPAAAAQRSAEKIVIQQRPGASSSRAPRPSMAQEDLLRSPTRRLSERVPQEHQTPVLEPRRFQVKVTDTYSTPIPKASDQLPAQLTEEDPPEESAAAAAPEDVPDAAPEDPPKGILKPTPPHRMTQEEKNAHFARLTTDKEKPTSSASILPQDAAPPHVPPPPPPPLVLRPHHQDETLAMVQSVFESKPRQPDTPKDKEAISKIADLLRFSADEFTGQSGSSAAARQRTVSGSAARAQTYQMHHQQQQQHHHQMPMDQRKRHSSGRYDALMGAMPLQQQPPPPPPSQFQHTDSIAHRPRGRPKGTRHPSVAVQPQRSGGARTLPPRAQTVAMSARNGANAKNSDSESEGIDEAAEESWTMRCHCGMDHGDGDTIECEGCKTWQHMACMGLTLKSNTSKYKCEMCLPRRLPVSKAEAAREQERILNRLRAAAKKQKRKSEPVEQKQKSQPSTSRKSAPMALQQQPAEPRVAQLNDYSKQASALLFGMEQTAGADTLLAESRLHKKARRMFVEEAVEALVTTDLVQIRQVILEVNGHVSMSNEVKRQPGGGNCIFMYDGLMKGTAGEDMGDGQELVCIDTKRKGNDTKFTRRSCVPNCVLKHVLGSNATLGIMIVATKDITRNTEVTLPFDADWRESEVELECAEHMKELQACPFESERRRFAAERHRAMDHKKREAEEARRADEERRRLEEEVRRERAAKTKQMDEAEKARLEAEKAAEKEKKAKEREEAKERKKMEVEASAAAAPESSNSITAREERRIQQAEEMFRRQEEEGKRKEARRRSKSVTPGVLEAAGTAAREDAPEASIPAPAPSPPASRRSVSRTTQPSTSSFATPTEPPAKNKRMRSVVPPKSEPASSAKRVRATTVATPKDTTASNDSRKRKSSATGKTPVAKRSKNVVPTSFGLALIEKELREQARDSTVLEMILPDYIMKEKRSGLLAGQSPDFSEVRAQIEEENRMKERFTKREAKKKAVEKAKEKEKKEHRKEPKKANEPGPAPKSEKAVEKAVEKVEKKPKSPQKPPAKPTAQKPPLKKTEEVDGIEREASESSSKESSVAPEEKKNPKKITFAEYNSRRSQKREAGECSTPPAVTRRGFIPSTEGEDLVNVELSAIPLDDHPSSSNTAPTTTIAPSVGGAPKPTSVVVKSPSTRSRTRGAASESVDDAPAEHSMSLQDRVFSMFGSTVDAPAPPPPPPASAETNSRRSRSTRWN

Molecular target: T1, HCF-1::GFP (C. elegans) (UniProt G5EC23)
T1 sequence: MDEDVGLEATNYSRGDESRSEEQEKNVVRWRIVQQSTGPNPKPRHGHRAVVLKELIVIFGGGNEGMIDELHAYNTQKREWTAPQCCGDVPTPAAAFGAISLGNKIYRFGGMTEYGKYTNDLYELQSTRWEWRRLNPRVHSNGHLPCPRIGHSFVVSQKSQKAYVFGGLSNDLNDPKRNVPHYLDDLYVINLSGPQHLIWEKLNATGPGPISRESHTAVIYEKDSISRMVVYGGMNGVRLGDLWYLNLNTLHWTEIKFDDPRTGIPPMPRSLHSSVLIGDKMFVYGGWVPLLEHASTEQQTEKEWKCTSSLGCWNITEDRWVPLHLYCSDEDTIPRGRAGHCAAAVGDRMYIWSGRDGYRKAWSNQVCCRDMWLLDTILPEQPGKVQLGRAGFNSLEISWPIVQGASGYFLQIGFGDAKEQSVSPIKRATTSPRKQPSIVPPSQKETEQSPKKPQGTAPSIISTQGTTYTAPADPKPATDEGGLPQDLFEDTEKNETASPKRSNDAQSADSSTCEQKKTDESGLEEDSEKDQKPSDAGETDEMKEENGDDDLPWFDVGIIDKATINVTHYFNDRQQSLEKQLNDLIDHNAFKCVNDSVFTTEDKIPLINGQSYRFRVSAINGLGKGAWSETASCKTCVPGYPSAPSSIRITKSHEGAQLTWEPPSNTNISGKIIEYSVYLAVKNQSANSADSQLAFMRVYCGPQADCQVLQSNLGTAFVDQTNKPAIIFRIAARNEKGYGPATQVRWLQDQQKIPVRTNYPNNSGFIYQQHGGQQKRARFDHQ
Test: affinity purification with mass spectrometry; two independent single-replicate experiments: HCF-1::GFP immunoprecipitated from worm lysate with anti-GFP antibody (3E6; strain IU171, liquid culture) or with GBP beads (strain IU382.1; 20 mM Tris-HCl pH 8.0, 150 mM NaCl, 0.1% NP-40, 2 mM EDTA; 5 h at 4 °C); untagged N2 worms as negative control

binding	Substance
binds weakly	HDA-1 (from UniProt O17695 1-461) (enzyme)
binds	SET-26 (from UniProt Q9U263 1-1645)
